Measurements from article PMC9120032.
These are yes or no findings as the source states them, for the method shown. In cells and extracts the contact can be indirect. Some binding calls cover weakened binding; strength is not graded here. Sequences can lack the tags named with a protein.

The chains behind the UniProt entries cited, without tags or fusion partners. Where a name states a change or a piece, a line headed by the entry shows the natural chain unless it says otherwise.
UniProt P0DTC6: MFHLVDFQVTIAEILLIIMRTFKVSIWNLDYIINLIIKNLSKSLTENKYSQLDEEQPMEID
UniProt P42224: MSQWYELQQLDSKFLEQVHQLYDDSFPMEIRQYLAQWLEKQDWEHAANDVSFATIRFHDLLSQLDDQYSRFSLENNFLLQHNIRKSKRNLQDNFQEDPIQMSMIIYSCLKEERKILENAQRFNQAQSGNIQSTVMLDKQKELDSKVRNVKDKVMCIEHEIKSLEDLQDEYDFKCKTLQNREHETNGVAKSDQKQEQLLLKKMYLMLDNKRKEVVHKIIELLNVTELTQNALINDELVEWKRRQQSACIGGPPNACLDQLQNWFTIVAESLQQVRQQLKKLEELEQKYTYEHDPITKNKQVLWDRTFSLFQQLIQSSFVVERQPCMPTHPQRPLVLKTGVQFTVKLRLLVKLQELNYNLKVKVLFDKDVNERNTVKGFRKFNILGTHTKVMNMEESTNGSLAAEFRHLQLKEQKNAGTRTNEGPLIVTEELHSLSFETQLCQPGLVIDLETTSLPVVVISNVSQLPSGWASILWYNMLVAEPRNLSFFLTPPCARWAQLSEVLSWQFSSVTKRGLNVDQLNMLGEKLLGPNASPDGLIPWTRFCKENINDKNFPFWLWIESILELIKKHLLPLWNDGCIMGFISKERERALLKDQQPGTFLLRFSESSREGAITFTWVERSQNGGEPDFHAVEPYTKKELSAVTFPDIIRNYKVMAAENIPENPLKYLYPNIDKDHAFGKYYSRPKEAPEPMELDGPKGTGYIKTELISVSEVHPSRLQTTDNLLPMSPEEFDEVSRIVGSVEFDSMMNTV

Target: T1, GST-GFP fused with the C-terminal peptide of ORF6 wild type (49-61 amino acids) (SARS-CoV-2) (UniProt P0DTC6)
T1 sequence: YSQLDEEQPMEID
Assay: pull-down; lysates from HeLa cells stimulated with IFN-γ incubated with GST fusion proteins immobilised on GST-beads for 1 h; PY-STAT1 detected by western blot; only the target purified

Substance: endogenous PY-STAT1 in HeLa cells stimulated by IFN-γ (from UniProt P42224 1-750)
- binding: binds
